The target of the test is T1, Hspa13-V5 (mouse) (UniProt Q8BM72).
T1 sequence: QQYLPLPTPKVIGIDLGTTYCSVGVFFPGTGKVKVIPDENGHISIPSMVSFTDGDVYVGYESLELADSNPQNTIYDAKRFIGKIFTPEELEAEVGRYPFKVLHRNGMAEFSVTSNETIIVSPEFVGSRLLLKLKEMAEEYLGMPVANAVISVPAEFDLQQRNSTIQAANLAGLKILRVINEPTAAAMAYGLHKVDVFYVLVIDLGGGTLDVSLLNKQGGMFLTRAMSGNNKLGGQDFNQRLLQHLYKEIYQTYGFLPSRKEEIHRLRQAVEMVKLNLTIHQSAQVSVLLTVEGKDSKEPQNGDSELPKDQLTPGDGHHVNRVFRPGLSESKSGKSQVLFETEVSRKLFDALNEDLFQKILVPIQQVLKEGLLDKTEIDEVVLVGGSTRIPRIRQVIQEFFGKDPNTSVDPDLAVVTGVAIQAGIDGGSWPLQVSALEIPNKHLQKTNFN
Nature of the test: co-IP; Hspa13-V5 and Bcap31-Flag transiently co-transfected into 293T cells; lysed 48 h after transfection; immunoprecipitated with anti-V5 antibody, probed with anti-Flag antibody.

The text below walks through data of paper PMC7272575.

No constants are given. Whether binding was seen depends on the method and setting. Binding seen in cells or lysates may run through a third protein. Some binding calls cover weakened binding; strength is not graded here. Where a sequence is shown, tags or fusion partners need not be part of it.

B1: Bcap31-Flag (protein, UniProt Q61335 1-245)
chain: MSLQWTTVATFLYAEVFAVLLLCIPFISPKRWQKVFKSRLVELVVTYGNTFFVVLIVILVLLVIDAVREILKYDDVTEKVNLQNNPGAMEHFHMKLFRAQRNLYIAGFSLLLSFLLRRLVTLISQQATLLASNEAFKKQAESASEAAKKYMEENDQLKKGAAEDGDKLDIGNTEMKLEENKSLKNDLRKLKDELASTKKKLEKAENEALAMQKQSEGLTKEYDRLLEEHAKLQASVRGPSVKKEE
Consider B1, for which the binding entry is on record as “binds”.
